# Some results were stated once for a whole list of compounds, not compound by compound. At least one structure is not confirmed: it was looked up by name or label, or the drawing left a doubt. Some compounds share one range, which may span the group rather than tell each member. Where a SMILES comes first, the peptide text is derived from it. [ ]: non-standard residue; d: D form. The star is where a group is joined. Nle = CCCC[C@H](N)C(=O)O; Cbz = O=C(OCc1ccccc1)*
# Tested on: ABCA1 protein
# Experiment: ABCA1 protein turnover and level in transiently transfected 293 cells (metabolic labeling, Western, cell surface biotinylation)
# Assay type: cell-based, human
# Details: non-specific cysteine protease inhibitors
# Excerpt: Plasmid constructs and cell transfection: ABCA1-FLAG was constructed as described (18). ABCA1delPEST was based on ABCA1-FLAG. Using PCR, ABCA1delPEST was constructed by deleting a nucleotide sequence that encodes mouse ABCA1 amino acids 1283-1306 and was confirmed by sequencing. HEK293 cells, in 12- or 24-well collagen-coated plates, were transiently transfected with various plasmid constructs at indicated DNA concentrations with Lipofectamine 2000 (Invitrogen Corp., San Diego, Calif., USA) at 37° C. overnight (20 hours). A construct expressing green fluorescence protein (GFP) was routinely used to visually monitor transfection efficiency (i.e., the percentage of cells expressing GFP). The transfection efficiency of 293 cells was in the range of 50-80% of cells. […] In addition to performing multiple replicates within each experiment, all experiments were repeated on multiple separate occasions to confirm reproducibility of results.
# Immunoprecipitation and immunoblot analysis of ABCA1: For immunoblot analysis of ABCA1, ABCA1-FLAG, and ABCA1delPEST-FLAG, transfected HEK293 cells, peritoneal macrophages, or primary hepatocytes were washed and scraped in PBS and lysed in RIPA buffer (10 mM Tris-HCl [pH 7.3], 1 mM MgCl2, 1.0% Nonidet P-40, 0.5% sodium deoxycholate, and 5 mM EDTA in the presence of protease inhibitors as follows: 0.5 μg/ml leupeptin, 1 μg/ml aprotinin, and 1 μg/ml pepstatin A) (Roche Molecular Biochemicals, Indianapolis, Ind., USA). Postnuclear supernatants containing the indicated amounts of protein were subjected to Western analysis using an anti-ABCA1 antiserum or anti-FLAG M2 antibody and chemiluminescence detection. The relative intensities of the bands were determined by densitometry. For cell surface ABCA1 analysis, cells were first biotinylated with 0.5 mg/ml EZ-Link Sulfo-NHS-SS-Biotin (Pierce Chemical Co., Rockford, Ill., USA) at 4° C. for 30 minutes. Then cells were lysed with RIPA buffer at 4° C. […] The total or ubiquitinated ABCA1 was detected by Western blot using either anti-FLAG antibody or streptavidin-horseradish peroxidase.
row,SMILES,increase of ABCA1 protein levels
1,CC(C)C[C@@H](C=O)NC(=O)[C@H](CC(C)C)NC(=O)[C@H](CC(C)C)NC(=O)OCc1ccccc1 [MG132] (Cbz-Leu-Leu-Leu-aldehyde),2-4 fold
2,"CCCC[C@@H](C=O)NC(=O)[C@H](CC(C)C)NC(=O)[C@H](CC(C)C)NC(C)=O [ALLN, N-Ac-Leu-Leu-norleucinal] (Ac-Leu-Leu-[Nle]-aldehyde)",2-4 fold
3,CC(=O)N[C@@H](CC(C)C)C(=O)N[C@@H](CC(C)C)C(=O)N[C@H](C=O)CCCNC(=N)N [leupeptin],2-4 fold

# From patent US20040096851A1, “ABCA1 PEST domain-related compositions and methods” (priority 2002, published 2004)
